Results are given in words; binding and its absence hold for the method and conditions named. Sequences can lack the tags named with a protein.
How the values were obtained:
[1] = molecular target: Mycobacterium tuberculosis FadD23 (fatty acyl AMP ligase FadD23), expressed in E. coli (Mycobacterium tuberculosis H37Rv) (UniProt P9WQ47); experiment: AUC; analytical ultracentrifugation of purified FadD23; both purified
[2] = molecular target: Mycobacterium tuberculosis FadD23 (fatty acyl AMP ligase FadD23), expressed in E. coli (Mycobacterium tuberculosis H37Rv) (UniProt P9WQ47); experiment: SEC; size exclusion chromatography of purified FadD23; both purified

B1: Mycobacterium tuberculosis FadD23 (fatty acyl AMP ligase FadD23), expressed in E. coli (enzyme, UniProt P9WQ47 1-584)
chain: MVSLSIPSMLRQCVNLHPDGTAFTYIDYERDSEGISESLTWSQVYRRTLNVAAEVRRHAAIGDRAVILAPQGLDYIVAFLGALQAGLIAVPLSAPLGGASDERVDAVVRDAKPNVVLTTSAIMGDVVPRVTPPPGIASPPTVAVDQLDLDSPIRSNIVDDSLQTTAYLQYTSGSTRTPAGVMITYKNILANFQQMISAYFADTGAVPPLDLFIMSWLPFYHDMGLVLGVCAPIIVGCGAVLTSPVAFLQRPARWLQLMAREGQAFSAAPNFAFELTAAKAIDDDLAGLDLGRIKTILCGSERVHPATLKRFVDRFSRFNLREFAIRPAYGLAEATVYVATSQAGQPPEIRYFEPHELSAGQAKPCATGAGTALVSYPLPQSPIVRIVDPNTNTECPPGTIGEIWVHGDNVAGGYWEKPDETERTFGGALVAPSAGTPVGPWLRTGDSGFVSEDKFFIIGRIKDLLIVYGRNHSPDDIEATIQEITRGRCAAIAVPSNGVEKLVAIVELNNRGNLDTERLSFVTREVTSAISTSHGLSVSDLVLVAPGSIPITTSGKVRRAECVKLYRHNEFTRLDAKPLQASDL
[1]
  binding: no binding
[2]
  binding: no binding
